Experimental data: the supplement of paper PMC10849652
Some of the results follow.

Protein sequences, listed by entry. Tags and fused reporters are not part of them. Lines headed by an entry give the natural chain unless they say otherwise; changes in a name come on top.
UniProt Q6PIW4: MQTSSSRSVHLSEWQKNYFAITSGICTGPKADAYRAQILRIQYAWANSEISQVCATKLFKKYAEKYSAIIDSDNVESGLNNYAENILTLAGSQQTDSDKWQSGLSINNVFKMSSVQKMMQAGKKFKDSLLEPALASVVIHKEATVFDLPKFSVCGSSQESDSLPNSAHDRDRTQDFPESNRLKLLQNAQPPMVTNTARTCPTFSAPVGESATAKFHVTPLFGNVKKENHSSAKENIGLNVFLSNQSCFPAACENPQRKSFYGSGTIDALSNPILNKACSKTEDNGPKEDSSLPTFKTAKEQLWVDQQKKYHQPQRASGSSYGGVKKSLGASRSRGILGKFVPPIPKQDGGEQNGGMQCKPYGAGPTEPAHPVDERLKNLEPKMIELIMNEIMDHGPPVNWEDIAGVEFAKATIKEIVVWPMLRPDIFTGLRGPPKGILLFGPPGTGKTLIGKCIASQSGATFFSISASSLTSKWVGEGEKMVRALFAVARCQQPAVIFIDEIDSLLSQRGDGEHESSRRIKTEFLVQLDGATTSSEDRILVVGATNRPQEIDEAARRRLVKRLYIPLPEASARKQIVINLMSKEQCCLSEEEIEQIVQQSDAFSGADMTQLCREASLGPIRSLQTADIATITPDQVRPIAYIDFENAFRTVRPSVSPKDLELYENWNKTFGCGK
UniProt Q9NWM8: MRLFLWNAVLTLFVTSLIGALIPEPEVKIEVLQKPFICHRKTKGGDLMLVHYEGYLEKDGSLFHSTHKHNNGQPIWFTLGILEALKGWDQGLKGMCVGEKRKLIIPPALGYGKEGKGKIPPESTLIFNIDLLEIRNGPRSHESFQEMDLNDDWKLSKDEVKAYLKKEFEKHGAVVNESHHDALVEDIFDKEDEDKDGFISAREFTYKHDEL
UniProt P23142: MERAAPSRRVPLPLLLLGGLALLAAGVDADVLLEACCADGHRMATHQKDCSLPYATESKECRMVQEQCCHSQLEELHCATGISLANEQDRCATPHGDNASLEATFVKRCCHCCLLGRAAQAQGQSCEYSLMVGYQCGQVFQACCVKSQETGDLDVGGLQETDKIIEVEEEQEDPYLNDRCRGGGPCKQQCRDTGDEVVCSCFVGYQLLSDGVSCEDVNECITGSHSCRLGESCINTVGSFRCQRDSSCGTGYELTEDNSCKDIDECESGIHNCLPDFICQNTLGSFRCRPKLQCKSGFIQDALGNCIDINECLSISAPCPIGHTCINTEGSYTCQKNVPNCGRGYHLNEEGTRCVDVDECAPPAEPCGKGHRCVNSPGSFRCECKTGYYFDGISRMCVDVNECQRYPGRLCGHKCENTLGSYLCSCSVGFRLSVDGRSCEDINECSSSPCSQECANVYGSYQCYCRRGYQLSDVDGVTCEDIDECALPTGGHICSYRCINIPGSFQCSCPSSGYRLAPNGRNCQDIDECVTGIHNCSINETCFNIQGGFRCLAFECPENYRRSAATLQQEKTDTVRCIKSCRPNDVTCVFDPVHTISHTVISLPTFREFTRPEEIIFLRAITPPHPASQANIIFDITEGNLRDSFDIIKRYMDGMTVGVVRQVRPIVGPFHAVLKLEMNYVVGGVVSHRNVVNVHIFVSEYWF
UniProt Q13045: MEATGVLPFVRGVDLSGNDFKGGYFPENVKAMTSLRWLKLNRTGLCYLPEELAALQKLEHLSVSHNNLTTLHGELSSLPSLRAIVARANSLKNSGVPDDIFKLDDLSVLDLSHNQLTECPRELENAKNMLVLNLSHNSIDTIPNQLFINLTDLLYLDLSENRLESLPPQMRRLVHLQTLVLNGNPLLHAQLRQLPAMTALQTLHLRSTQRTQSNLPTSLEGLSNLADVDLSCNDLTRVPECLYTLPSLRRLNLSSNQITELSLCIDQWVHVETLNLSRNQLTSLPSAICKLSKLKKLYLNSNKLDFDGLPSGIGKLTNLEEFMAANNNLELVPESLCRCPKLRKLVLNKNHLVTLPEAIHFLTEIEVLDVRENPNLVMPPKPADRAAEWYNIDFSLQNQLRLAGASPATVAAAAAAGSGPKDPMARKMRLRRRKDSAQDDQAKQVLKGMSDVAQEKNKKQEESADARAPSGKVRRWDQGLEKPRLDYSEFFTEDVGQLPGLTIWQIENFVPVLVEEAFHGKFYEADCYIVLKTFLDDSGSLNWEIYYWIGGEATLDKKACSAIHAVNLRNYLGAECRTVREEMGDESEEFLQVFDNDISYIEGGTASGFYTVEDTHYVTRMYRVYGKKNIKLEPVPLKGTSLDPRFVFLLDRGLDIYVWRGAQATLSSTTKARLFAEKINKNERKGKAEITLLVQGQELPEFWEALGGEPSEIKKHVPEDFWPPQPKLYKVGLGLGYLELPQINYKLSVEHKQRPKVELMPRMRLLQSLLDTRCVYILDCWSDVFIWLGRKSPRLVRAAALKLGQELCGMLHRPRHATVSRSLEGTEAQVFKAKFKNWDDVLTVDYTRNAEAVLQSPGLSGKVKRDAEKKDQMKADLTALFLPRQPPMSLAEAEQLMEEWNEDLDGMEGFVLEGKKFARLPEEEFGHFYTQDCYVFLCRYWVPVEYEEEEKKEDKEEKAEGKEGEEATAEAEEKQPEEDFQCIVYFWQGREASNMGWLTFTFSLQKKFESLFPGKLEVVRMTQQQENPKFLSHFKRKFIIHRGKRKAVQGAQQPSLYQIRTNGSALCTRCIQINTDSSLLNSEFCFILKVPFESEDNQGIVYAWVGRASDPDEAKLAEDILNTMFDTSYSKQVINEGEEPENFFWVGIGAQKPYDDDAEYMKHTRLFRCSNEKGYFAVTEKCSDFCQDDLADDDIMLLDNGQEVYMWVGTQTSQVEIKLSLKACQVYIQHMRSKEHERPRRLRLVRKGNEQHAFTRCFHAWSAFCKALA
UniProt Q8NFF5: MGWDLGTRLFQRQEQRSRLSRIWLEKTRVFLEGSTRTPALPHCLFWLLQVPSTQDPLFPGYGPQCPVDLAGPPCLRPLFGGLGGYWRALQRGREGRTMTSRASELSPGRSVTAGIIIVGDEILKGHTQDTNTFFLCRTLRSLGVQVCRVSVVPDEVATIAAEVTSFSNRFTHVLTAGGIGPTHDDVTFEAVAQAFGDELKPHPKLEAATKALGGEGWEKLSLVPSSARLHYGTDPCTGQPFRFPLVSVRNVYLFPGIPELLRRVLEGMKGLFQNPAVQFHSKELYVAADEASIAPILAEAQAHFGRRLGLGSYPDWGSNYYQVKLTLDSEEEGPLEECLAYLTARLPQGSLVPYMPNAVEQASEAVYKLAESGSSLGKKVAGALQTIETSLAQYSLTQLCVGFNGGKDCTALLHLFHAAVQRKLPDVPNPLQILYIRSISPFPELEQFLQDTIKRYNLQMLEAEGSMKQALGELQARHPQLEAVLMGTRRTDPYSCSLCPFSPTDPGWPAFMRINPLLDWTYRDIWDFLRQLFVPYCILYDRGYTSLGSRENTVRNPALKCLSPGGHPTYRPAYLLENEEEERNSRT
UniProt Q96ME1: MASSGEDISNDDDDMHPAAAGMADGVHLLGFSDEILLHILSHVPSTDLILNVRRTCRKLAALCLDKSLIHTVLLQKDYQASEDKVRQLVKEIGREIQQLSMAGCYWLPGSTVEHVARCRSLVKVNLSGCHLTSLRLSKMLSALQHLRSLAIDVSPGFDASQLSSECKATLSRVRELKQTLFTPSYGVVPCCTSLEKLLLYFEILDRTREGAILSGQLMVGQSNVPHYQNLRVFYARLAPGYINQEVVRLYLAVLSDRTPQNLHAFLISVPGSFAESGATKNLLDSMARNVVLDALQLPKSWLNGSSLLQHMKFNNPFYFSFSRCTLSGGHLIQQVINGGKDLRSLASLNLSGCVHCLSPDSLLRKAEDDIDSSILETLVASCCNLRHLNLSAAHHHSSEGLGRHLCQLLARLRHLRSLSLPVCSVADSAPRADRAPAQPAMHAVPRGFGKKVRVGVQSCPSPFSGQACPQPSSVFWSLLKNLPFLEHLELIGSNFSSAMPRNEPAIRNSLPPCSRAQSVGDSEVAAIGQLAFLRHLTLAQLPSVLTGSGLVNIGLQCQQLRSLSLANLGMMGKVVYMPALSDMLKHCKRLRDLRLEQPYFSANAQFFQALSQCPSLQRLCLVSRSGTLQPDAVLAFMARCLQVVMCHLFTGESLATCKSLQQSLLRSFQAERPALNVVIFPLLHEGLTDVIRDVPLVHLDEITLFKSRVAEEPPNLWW
UniProt Q9H469: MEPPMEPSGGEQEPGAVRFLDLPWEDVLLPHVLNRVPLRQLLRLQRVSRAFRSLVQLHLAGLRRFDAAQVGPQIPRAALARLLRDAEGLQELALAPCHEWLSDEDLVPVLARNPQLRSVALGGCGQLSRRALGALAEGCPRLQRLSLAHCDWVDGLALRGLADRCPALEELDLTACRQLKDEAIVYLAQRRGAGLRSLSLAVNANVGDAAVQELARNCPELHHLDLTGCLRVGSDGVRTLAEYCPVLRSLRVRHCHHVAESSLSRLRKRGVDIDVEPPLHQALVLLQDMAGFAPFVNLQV
UniProt Q96PY5, whole entry, looked up: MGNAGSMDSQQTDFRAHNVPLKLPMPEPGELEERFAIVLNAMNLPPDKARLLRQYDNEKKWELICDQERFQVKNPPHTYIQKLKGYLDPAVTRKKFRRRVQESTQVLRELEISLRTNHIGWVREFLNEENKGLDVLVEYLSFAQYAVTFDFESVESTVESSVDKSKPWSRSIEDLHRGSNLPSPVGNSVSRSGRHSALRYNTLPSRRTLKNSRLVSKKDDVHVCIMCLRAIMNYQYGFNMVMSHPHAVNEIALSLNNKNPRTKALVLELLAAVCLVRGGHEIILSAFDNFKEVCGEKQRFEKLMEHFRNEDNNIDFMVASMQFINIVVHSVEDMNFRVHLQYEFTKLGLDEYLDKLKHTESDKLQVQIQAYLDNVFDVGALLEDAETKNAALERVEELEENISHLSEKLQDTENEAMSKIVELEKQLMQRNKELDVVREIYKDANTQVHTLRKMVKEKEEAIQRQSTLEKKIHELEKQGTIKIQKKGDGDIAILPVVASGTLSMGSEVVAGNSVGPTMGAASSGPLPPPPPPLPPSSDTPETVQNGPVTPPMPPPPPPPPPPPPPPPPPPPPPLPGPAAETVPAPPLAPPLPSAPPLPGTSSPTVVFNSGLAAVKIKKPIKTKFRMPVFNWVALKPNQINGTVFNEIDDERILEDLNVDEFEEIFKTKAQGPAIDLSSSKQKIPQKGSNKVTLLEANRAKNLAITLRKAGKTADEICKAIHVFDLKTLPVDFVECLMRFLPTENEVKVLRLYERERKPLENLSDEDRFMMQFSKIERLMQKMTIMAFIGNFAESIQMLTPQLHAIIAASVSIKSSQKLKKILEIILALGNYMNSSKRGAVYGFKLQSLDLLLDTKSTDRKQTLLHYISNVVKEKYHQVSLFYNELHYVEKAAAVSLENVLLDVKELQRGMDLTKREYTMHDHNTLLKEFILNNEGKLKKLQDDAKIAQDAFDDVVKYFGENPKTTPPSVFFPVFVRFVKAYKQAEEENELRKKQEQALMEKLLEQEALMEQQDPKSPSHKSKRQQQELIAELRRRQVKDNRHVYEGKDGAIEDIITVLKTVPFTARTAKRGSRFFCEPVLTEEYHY
UniProt Q9Y324: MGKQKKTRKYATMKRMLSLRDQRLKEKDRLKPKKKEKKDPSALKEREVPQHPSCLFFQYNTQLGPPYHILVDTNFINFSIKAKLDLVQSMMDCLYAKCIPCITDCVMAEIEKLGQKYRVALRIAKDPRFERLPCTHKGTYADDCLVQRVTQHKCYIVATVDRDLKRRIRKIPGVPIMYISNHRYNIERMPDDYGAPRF
UniProt Q9NPI8: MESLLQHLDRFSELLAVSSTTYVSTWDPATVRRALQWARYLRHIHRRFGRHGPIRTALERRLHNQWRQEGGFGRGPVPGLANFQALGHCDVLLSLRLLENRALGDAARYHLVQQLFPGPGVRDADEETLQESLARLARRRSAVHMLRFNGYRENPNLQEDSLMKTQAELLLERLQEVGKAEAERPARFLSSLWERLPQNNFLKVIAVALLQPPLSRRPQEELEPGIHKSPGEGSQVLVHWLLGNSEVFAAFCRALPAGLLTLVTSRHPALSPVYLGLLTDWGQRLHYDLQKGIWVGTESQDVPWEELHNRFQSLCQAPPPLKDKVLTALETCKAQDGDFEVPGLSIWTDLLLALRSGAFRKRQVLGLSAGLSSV

Assays:
Assay in all cases: log2 fold change, soluble protein after heating vs DMSO (PISA); higher = thermal stabilisation; K562 lysate, 10 uM; active = over 0.2 and 3.5 SD of the protein, either way, in both replicates (recomputed)
[1] = compound: C1=CC=C(C=C1)[C@H](COC2=CC3=C(C=C2)NC(=O)N3)NC(=O)C4=CC=CN(C4=O)CC5=CC(=C(C=C5)F)F
In short: (§1)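 Following dounce homogenisation of K562 pellets in PBS pH 7.4 with 1 mM MgCl2, crude extract at 1 mg/mL protein was incubated for 30 min with 10 μM compound. Aliquots were then heated for 3 min over 48°C-58°C and pooled, NP-40 was added to 0.5% at 4°C, and soluble protein was recovered as the supernatant at 21,000xg for 90 min. Channel-sum-equalised TMTpro 16plex LC-MS/MS quantified this protein. Each value, from duplicates, is a log-two fold change in thermal stability relative to solvent controls.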

[2] = compound: CC1=C(SC2=C1C(=N[C@H](C3=NN=C(N32)C)CC(=O)N)C4=CC=C(C=C4)Cl)C
In short: as §1

[3] = compound: CC1=C2C(=CC=C1)N=C(N(C2=O)C3=CC=CC=C3C)CN4C=NC5=C(N=CN=C54)N
In short: as §1

[4] = compound: Cc1sc2c(c1C)C(c1ccc(Cl)cc1)=N[C@@H](CC(=O)OC(C)(C)C)c1nnc(C)n1-2
In short: as §1

[5] = compound: c1ccc([C@@H]2C[C@H]2NC2CCNCC2)cc1
In short: as §1

Measured: log2 fold change

FAR1 (UniProt Q8WVX9)
inactive: [1] -0.262 | [2] 0.005 | [3] -0.017 | [4] 0.011 | [5] 0

FIGNL1 (UniProt Q6PIW4)
inactive: [1] -0.033 | [2] 0.01 | [3] 0.028 | [4] 0.051 | [5] 0.085

FKBP14 (UniProt Q9NWM8)
inactive: [1] 0.068 | [2] -0.058 | [3] 0.029 | [4] 0.015 | [5] -0.046

FBLN1 (UniProt P23142)
inactive: [1] -0.023 | [2] 0.068 | [3] 0.026 | [5] -0.134

FNBP4 isoform 2 (UniProt Q8N3X1)
inactive: [1] 0.01 | [2] -0.015 | [3] 0.006 | [4] -0.016 | [5] -0.003

FARSB (UniProt Q9NSD9)
inactive: [1] -0.014 | [2] 0.036 | [3] -0.004 | [4] 0.02 | [5] 0.052

FLYWCH2 (UniProt Q96CP2)
inactive: [1] 0.014 | [2] 0.069 | [3] -0.01 | [4] 0.046 | [5] 0.068

FER (UniProt P16591)
inactive: [1] -0.024 | [2] 0.05 | [3] -0.057 | [4] -0.015 | [5] -0.093

FNTB (UniProt P49356)
inactive: [1] 0.023 | [2] 0.135 | [3] 0.015 | [4] -0.008 | [5] 0.038

FEM1B (UniProt Q9UK73)
inactive: [1] 0.048 | [2] 0.1 | [3] -0.06 | [4] 0.003 | [5] -0.118

FLII (UniProt Q13045)
inactive: [1] 0.045 | [2] -0.033 | [3] 0 | [4] 0.007 | [5] 0.04

FLAD1 (UniProt Q8NFF5)
inactive: [1] 0.006 | [2] 0.032 | [3] 0.011 | [4] 0.017 | [5] 0.022

FBXL18 isoform 4 (UniProt Q96ME1)
inactive: [1] 0.037 | [2] -0.014 | [3] -0.014 | [4] -0.014 | [5] 0.005

Retrieved one by one from the entries so far (two):
FLII (UniProt Q13045)
inactive: [1] 0.045 | [2] -0.033 | [3] 0 | [4] 0.007 | [5] 0.04

FEM1B (UniProt Q9UK73)
inactive: [1] 0.048 | [2] 0.1 | [3] -0.06 | [4] 0.003 | [5] -0.118

The list goes on:

FAM91A1 (UniProt Q658Y4)
inactive: [1] 0.014 | [2] -0.011 | [3] -0.025 | [4] -0.005 | [5] 0.042

FIBP (UniProt O43427)
inactive: [1] -0.018 | [2] 0 | [3] -0.044 | [4] -0.027 | [5] -0.002

FBXL15 (UniProt Q9H469)
inactive: [3] -0.029 | [4] -0.038 | [5] -0.093

FOXJ2 (UniProt Q9P0K8)
inactive: [1] 0.022 | [2] 0.06 | [4] 0.015 | [5] 0.039

FMNL2 isoform 3 (UniProt Q96PY5)
inactive: [4] 0.089

FGFR1OP isoform 3 (UniProt O95684)
inactive: [3] -0.257

FNDC3A (UniProt Q9Y2H6)
inactive: [5] -0.136

FEN1 (UniProt I3L3E9)
inactive: [3] -0.074 | [5] 0.011

FHAD1 isoform 3 (UniProt B1AJZ9)
inactive: [3] 0.204 | [4] -0.047

FOSL1 (UniProt P15407)
inactive: [4] -0.076 | [5] -0.048

FGF13 isoform 3 (UniProt Q92913)
inactive: [1] 0.001 | [2] -0.072 | [4] -0.007 | [5] 0.032

FCF1 (UniProt Q9Y324)
inactive: [4] -0.074 | [5] 0.02

FANCG (UniProt O15287)
inactive: [3] -0.063 | [5] 0.028

FANCF (UniProt Q9NPI8)
inactive: [5] 0.266

FGFR1OP2 isoform 2 (UniProt Q9NVK5)
inactive: [5] 0.105

FKBP10 (UniProt Q96AY3)
inactive: [4] 0.023 | [5] 0.015

FANCE (UniProt Q9HB96)
inactive: [4] -0.14 | [5] 0.087

FASTKD1 (UniProt Q53R41)
inactive: [3] 0.024 | [4] 0.001 | [5] 0.021

FER isoform 3 (UniProt P16591)
inactive: [5] -0.187
